Data as given in PubChem BioAssay AID602196 (INSERM, 2012)
The whole screen tested about 23,000 reagents; this is a part drawn at random. Of all reagents, 455 (2%) were called active. 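Active includes both protection and sensitisation; some change values fall well beyond the stated -50 to +50 range.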 Unmarked entries are inactive. No sequences are given here. Not given: the amount of reagent.

Test: 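Modifiers of cisplatin sensitivity in A549 cells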
Cells: human A549 lung cancer cells
Reagents: siRNA pair against human genes
Time to read-out: 48 h transfection before cisplatin; time from cisplatin to read-out not stated
Challenge: cisplatin at a dose killing half of control-siRNA cells; exact dose and duration not given
Measurement: 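Cisplatin cell death as a shift from the 50% death seen with control siRNA; siRNAs toxic or growth-blocking alone scored 0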
Direction: two-siRNA summed score (-2 to +2): higher = both siRNAs protect from cisplatin killing; -2 means both sensitise; mean protection from cisplatin (shift in death) and protection from cisplatin (shift in death), siRNA C and protection from cisplatin (shift in death), siRNA D: higher = protection from cisplatin killing
Hit rule: 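Each siRNA scores 0 if harmful alone by LDH or WST-1, otherwise +1 if it reduces and -1 if it increases cisplatin killing; a gene is active when both siRNAs agree (sum +2 or -2)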
Calls: active = both siRNAs shift cisplatin killing the same way; inactive = no consistent shift, or siRNA harmful alone

no.	Gene	two-siRNA summed score (-2 to +2)	mean protection from cisplatin (shift in death) (%)	protection from cisplatin (shift in death), siRNA C (%)	protection from cisplatin (shift in death), siRNA D (%)
1	FTSJ3	0	8.4	11.5	5.4
2	IRS2	-1	-13.7	-22.5	-5
3	LOC388141	0	7	-1.7	15.8
4	ZNF750	0	3.7	-9.4	16.9
5	PRDM1	-1	-1.8	5	-8.7
6	MROCKI	0	0	-6.8	6.8
7	ATP10D	1	11.5	21	2
8	LOC389672	-1	0	16.5	-16.5
9	ZNF74	0	-0.1	4.3	-4.6
10	ESPL1	0	-9.3	-9.5	-9.2
11	ATL2	0	0.1	-3.5	3.7
12	LOC284912	1	14.9	10.9	18.9
13	MED22	0	6.1	5.3	6.8
14	LINC00550	1	12	25.3	-1.4
15	P2RY14	2 (active)	22.7	19.4	26
16	LINC02210	0	3.4	9.9	-3.2
17	PRKACB	0	4.9	-3.5	13.2
18	NAT9	0	-2.8	-2.1	-3.4
19	SOCS6	1	26.3	37.7	14.9
20	LOC441473	1	12.4	22.6	2.2
21	WDR87	0	12.1	13.7	10.5
22	CYB561D1	0	15.2	26.4	4
23	CRYBB2	0	-6.1	-11.5	-0.7

2 entries already listed, sorted by “mean protection from cisplatin (shift in death) (%)”, high to low.
Gene	two-siRNA summed score (-2 to +2)	mean protection from cisplatin (shift in death) (%)	protection from cisplatin (shift in death), siRNA C (%)	protection from cisplatin (shift in death), siRNA D (%)
ATP10D	1	11.5	21	2
MROCKI	0	0	-6.8	6.8
